For test [1], the target named is GFP-tagged SUMO^Q95P (S. cerevisiae) [SUMO: Q12306]. The test can be described thus: co-IP.
For test [2], the target named is Nur1Δ54^3HA (S. cerevisiae). As to the kind of experiment: co-IP.

No constants are given. Whether binding was seen depends on the method and setting. Binding seen in cells or lysates may run through a third protein. Binding can be weak; no strength is given. For some assays here: Sequences can lack the tags named with a protein.

B1: Slx5 (protein, UniProt P32828 1-619)
chain: MHSDTNGRTKSNNSPSDNNPNETVILIDSDKEEDASIREANLPVRLYPDRRVGRRRDALNRFVRSDSRSRNSQRTHITASSERPDFQANNDDITIIREVGRFFGDDGPIDPSAHYVDLDQEPGSETLETPRTIQVDNTNGYLNDNGNNNESDDGLTIVEERTTRPRVTLNLPGGERLEVTATTTDIPIRRSFEFQEDLGASRRQLLRRSATRARNLFVDRSDENDEDWTDDTHNLPEAIQRARRESRMRMSRRIAERQRRVQQQRVSSDENISTSIRLQSIRERIQSYTPDIRSAFHRAESLHEFRSILQNVAPITLQECEEELMALFTEFRNQLLQNWAIDRVRNTQEEALRLHREALERQERTAGRVFHRGTLRESITNYLNFNGEDGFLSRLWSGPALSDADEERHTQNIIDMIQEREERERDVVMKNLMNKTRAQQEEFEARAASLPEGYSASFDTTPKMKLDITKNGKEETIIVTDDDLAKTLEDIPVCCLCGAELGVGIPDDFTGISQKDRGVSFEGLVSKYKFHCPYQTLARPSMLDRDLSKRTFIASCGHAFCGRCFARIDNAKKKSKMPKKKLAQLKGSAHPDNYGPKLCPADSCKKLIRSRGRLKEVYF
Take B1: the binding entry in test [1] is on record as “binds”.

B2: Heh1^GFP (protein, UniProt Q03707 1-834)
chain: MNSDLEYLEDGFDPNSMKVATLRRILVENNVDFPSNARKNALVGLFDEKVKPQIPQLRKMYLNVRPSDEGIVKMDRPSSSPSIASPRRSRRARREKSASPMAKQFKKNRILDDVSNDDDDDDDDDDDNDKKDDPLIVPSGTDTDEVDDEEDDVITSSSNKSDTNDFQQNSDTRKKRKDPDSDDWSESNSKENKIDNKHLNLLSSDSEIEQDYQKAKKRKTSDLNQEHGNGSAILGKLSVKTPIKNTNRKPVSMDNFNDSLTSSGTENDPFVPNIRHNPKELGTANGTGHSTPLSKLKVSASFADKLPQKEVPSTILVPEVEQQEPSQSERTPSLFSSEGSGSESEAPLLPEITTPGPHQPMGNTSNNVVEMIDTDSSNLVSDEDEVLVPTRIETPQLPTEKDVEKCEARVQELQEEVNEQLEHENGSEFDVKQGSGKVGNRHKFKRALKFLSKSLLALFLFCIFIVIPLLFGLWYREQRLLIGYCGHEVPSHRVSGNSFEFIQKLDNLLQDYRPKCIPCPPNGICYPYLKLKCKPDYKLAPSRLDFLEIIPAQGKCVKDDKKQQLVSEVVEKSLEFLRAKNAQISCGDGKDDIESGMTEDALYQIFNEARAPWIRDDEFEDLWIQVIKDLTEEPEILWRQLSPTDNNIGGNSNNIIKTNDVPRQKRHLPEKFISKTRNFRSTSKKYIGMKCRFEREIYQTYKKFQRPIWLMFLLIVISKVIEIKLKNYYRKKARIEELVTQTMEKLKFQKIKSMSDPKENAYLSIVQLRDIFLSDIVDLKYKNQLWSEVVKYLEHNNSNIKSNLTEIRGEIMKCWEWIGPMELNEPKDSAENKI
For B2, the binding entry in test [2] is “binds”.

For the origin of these results see publication doi:10.1101/2021.01.05.425376.
